For one molecule, binding results are on record in article PMC5541705.

No constants are given. Whether binding was seen depends on the method and setting. Binding seen in cells or lysates may run through a third protein. Some entries that bind do so weakly or less than the wild type.

The target of this assay is T1, Transforming growth factor-β2 (TGFβ2) (human (endogenous in MDA-MB-231)) (UniProt P61812).
T1 sequence: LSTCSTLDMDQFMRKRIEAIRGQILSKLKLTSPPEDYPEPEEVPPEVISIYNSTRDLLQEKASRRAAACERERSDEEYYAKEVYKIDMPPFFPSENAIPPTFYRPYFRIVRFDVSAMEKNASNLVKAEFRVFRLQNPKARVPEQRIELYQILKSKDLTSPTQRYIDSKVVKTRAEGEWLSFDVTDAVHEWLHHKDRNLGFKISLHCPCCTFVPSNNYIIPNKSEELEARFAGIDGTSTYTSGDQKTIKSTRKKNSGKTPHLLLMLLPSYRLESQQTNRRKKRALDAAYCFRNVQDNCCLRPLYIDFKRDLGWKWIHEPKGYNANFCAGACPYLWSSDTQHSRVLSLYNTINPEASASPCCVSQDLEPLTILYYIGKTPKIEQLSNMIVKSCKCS
The assay can be described thus: co-IP; 1 mg MDA-MB-231 lysate (RIPA buffer with protease inhibitors) incubated with protein G-agarose and anti-SRGN or anti-TGFβ2 antibody for 4 h at 4 °C; beads washed 3 times with 150 mM NaCl, 25 mM Tris-HCl pH 7.5, 0.1% Nonidet P-40; western blot with anti-SRGN or anti-TGFβ2 antibody.

B1: Serglycin (SRGN) (protein, UniProt P10124 28-158)
chain: YPTRRARYQWVRCNPDSNSANCLEEKGPMFELLPGESNKIPRLRTDLFPKTRIQDLNRIFPLSEDYSGSGFGSGSGSGSGSGSGFLTEMEQDYQLVDESDAFHDNLRSLDRNLPSDSQDLGQHGLEEDFML
As to B1, the binding entry is reported as “binds”.
